Earlier results, collected in patent publication US9085603B2, “Progesterone receptor antagonists” (Bayer Intellectual Property GmbH, priority 2010, dated 2015).
For at least one compound, name, drawing or mass did not settle the structure.

Test system: uterus fibroids
Settings: several clinical studies; cited from earlier work

COC[C@]1(OC)CC[C@H]2[C@@H]3CCC4=CC(=O)CCC4=C3[C@@H](c3ccc(/C=N/O)cc3)C[C@@]21C [asoprisnil]
Effect on uterus fibroids: significant shrinkage of uterus fibroids | Symptoms associated with uterus fibroids: significant reduction in the symptoms
